Like-named read-outs stand apart in the source and are kept apart here. No constants are given. Whether binding was seen depends on the method and setting. In cells and extracts the contact can be indirect. A yes stands for co-enrichment or nearness to the bait. Other partners may have been found. One block for each molecule: values may come before it.
Columns and labels:
Assay in all cases: affinity purification with mass spectrometry; HA-N-MYC complexes from 200 million stably transfected, doxycycline-induced HEK293 cells on HA-coupled magnetic beads, benzonase; label-free quantification against untransfected control cells; two biological replicates each for wild-type and P44L
[1] = molecular target: HA-N-MYC (wild-type) (human) (UniProt P04198)
[2] = molecular target: HA-N-MYC-P44L (human) (UniProt P04198)
[3] = molecular target: HA-N-MYC (wild-type) (human) (UniProt P04198); remark: listed apart in the source
[4] = molecular target: HA-N-MYC-P44L (human) (UniProt P04198); remark: listed apart in the source

The chains behind the UniProt entries cited, without tags or fusion partners. Where a name states a change or a piece, a line headed by the entry shows the natural chain unless it says otherwise.
UniProt P04198: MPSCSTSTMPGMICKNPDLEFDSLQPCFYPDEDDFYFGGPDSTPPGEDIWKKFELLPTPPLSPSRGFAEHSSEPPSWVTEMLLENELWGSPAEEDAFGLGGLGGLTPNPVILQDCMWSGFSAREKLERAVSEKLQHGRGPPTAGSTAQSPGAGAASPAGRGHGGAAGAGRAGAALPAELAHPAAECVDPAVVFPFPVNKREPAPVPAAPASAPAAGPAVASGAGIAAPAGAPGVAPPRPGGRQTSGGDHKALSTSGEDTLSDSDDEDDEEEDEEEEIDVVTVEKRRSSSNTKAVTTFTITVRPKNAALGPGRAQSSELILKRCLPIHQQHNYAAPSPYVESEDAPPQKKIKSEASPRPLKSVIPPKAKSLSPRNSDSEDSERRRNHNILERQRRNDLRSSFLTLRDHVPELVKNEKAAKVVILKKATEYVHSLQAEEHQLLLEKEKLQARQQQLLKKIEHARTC
UniProt O14641: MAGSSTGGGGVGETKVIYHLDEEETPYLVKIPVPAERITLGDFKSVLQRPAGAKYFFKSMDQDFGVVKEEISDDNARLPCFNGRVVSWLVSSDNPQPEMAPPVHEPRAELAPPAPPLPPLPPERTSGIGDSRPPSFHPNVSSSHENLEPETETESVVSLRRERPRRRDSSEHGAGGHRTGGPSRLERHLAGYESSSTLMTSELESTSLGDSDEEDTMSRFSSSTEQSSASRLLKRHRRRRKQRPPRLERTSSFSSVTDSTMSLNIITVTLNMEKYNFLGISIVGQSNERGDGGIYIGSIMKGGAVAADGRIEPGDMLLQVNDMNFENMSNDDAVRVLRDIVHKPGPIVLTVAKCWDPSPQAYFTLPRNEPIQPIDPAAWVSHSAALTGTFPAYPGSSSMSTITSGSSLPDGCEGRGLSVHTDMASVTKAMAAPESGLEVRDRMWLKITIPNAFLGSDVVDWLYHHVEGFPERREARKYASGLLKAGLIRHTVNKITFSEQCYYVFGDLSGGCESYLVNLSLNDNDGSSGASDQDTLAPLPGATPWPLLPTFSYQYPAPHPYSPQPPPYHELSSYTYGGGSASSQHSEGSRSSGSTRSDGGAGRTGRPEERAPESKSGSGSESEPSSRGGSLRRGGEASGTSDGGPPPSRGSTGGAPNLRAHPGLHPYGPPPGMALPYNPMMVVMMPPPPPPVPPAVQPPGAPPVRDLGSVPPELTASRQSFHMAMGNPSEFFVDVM
UniProt Q96L91: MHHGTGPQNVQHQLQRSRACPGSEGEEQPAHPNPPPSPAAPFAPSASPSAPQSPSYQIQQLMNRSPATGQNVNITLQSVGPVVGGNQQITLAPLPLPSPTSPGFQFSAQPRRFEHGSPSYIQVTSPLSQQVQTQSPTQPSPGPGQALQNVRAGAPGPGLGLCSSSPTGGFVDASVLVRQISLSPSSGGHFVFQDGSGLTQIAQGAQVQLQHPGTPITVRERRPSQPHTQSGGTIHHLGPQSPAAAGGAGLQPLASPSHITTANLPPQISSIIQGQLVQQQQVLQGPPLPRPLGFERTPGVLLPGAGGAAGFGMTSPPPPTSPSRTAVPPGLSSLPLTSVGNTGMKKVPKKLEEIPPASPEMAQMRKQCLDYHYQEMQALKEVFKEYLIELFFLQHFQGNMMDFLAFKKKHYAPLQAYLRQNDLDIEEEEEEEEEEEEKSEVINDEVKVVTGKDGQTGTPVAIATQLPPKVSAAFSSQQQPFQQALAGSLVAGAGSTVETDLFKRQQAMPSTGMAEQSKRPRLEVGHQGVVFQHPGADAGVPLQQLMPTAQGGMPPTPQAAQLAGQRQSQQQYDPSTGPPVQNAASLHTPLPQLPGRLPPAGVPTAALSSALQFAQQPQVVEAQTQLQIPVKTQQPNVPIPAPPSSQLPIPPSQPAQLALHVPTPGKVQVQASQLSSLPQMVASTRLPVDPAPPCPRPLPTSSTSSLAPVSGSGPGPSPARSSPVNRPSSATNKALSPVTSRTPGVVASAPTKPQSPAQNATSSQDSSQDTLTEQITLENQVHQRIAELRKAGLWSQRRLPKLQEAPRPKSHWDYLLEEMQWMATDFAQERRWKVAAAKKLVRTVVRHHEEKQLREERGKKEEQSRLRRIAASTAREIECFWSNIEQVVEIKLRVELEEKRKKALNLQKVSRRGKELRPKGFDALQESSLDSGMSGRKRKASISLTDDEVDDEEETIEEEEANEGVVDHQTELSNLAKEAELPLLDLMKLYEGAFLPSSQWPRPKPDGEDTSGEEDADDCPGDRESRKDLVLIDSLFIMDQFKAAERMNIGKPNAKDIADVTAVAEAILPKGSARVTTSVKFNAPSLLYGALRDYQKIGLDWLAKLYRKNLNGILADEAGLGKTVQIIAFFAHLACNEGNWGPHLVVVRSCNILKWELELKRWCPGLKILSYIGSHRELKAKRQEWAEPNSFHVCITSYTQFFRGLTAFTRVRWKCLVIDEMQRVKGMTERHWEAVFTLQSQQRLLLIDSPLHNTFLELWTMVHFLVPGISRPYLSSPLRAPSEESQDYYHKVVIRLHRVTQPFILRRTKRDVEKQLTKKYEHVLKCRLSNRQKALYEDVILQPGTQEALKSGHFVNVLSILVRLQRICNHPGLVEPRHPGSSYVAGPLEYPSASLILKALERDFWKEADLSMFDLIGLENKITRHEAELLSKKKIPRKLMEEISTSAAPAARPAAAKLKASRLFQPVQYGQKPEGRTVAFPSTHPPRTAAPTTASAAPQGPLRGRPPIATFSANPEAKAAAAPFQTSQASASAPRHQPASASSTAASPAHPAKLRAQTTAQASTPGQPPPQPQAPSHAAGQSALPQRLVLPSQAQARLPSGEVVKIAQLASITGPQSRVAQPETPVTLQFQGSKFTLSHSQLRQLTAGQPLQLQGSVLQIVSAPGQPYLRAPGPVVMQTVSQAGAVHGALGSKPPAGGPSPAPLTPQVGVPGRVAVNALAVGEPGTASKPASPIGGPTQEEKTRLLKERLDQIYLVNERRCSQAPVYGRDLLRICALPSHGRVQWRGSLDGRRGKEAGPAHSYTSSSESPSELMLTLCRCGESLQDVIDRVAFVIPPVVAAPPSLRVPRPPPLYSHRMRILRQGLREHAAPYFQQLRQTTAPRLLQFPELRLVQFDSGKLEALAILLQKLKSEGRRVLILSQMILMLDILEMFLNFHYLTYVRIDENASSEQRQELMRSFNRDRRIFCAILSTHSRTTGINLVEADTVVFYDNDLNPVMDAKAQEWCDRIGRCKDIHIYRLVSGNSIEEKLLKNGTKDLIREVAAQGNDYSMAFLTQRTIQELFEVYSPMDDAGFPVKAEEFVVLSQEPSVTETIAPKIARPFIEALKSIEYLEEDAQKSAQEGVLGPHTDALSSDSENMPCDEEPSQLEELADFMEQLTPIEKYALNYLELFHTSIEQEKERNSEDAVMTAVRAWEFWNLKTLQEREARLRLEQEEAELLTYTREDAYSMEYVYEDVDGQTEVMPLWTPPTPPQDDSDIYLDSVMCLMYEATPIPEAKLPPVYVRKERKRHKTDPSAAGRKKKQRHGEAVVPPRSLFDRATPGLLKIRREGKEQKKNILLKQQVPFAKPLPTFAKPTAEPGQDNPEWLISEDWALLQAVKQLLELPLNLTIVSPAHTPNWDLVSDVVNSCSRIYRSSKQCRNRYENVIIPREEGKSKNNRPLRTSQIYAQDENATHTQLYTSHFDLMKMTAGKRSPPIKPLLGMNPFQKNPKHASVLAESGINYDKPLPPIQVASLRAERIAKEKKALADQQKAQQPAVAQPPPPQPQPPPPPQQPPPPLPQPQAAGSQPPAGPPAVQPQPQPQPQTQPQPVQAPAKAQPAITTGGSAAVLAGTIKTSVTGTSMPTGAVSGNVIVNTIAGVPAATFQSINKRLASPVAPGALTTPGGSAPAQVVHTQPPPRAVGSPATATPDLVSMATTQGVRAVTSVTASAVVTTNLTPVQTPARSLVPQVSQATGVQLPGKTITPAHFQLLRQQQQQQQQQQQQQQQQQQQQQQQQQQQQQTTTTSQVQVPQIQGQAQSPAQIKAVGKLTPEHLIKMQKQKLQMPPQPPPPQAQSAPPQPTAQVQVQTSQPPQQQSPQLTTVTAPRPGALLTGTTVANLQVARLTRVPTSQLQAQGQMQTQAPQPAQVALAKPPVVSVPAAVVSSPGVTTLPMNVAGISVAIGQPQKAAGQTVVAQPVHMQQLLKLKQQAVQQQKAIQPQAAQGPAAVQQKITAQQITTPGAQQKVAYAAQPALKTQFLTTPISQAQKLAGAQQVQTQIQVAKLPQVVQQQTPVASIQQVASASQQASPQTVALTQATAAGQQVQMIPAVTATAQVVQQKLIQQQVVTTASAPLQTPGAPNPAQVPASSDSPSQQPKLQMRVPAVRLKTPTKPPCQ
UniProt Q969H0: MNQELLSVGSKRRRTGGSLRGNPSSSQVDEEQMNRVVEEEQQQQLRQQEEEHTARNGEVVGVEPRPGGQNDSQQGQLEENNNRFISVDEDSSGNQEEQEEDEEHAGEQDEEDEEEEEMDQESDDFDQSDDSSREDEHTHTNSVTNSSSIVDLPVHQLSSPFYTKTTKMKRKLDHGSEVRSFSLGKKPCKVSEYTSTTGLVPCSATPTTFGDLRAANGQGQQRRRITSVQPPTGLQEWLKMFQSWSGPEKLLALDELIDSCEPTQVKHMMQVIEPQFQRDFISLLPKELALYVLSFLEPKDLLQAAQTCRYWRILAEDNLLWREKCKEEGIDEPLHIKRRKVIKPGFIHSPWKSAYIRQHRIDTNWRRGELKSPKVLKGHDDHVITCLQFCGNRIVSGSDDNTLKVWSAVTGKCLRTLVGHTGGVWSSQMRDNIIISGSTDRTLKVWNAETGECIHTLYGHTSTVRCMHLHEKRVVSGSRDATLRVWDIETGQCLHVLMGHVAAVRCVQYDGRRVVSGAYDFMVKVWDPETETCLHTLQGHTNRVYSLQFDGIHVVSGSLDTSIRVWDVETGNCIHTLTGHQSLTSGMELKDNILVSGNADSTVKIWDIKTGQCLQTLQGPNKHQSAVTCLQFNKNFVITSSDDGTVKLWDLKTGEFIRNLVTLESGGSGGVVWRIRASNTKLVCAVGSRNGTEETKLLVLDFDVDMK
UniProt P61244: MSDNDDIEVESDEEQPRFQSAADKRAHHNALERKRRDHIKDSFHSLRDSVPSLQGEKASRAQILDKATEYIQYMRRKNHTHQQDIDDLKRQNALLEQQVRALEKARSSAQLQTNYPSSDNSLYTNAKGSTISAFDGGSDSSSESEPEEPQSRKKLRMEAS
UniProt Q96EZ8: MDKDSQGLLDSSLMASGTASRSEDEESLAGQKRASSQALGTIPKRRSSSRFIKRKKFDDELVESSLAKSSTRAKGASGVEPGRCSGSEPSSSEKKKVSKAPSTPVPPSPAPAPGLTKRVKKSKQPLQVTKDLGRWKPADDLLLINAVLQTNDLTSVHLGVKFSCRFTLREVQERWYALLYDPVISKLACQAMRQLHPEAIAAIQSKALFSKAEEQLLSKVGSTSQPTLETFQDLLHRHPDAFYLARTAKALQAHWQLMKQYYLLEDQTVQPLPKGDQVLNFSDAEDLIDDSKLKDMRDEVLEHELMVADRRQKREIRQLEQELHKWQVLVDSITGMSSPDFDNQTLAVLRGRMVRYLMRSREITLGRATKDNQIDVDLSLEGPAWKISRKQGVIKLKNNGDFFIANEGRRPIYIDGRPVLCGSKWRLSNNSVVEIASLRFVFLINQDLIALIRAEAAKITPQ
UniProt P10155: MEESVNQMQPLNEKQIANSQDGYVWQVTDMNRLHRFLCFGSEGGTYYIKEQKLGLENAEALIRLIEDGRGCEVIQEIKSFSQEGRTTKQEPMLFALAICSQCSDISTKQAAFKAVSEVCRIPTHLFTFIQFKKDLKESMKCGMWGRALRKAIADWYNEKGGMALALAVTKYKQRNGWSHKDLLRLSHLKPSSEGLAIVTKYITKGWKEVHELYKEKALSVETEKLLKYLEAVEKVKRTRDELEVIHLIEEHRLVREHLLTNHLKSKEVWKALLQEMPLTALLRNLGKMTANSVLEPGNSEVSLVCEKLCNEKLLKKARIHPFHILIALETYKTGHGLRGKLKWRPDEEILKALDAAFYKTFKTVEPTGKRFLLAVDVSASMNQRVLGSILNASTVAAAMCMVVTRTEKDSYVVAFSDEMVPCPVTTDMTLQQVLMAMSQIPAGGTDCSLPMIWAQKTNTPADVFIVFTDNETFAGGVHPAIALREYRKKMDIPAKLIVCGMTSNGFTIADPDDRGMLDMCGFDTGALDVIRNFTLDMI

binding [1]: binds
binding [2]: binds
Molecule: DVL2 (endogenous) (from UniProt O14641 1-736)

binding [1]: binds
binding [2]: binds
Molecule: EP400 (endogenous) (from UniProt Q96L91 1-3159)

binding [1]: binds
binding [2]: binds
Molecule: FBXW7 (endogenous) (from UniProt Q969H0 1-707)

binding [1]: binds
binding [2]: binds
Molecule: MAX (endogenous) (from UniProt P61244 1-160)

binding [1]: binds
binding [2]: binds
Molecule: MCRS1 (endogenous) (from UniProt Q96EZ8 1-462)

binding [1]: binds
binding [2]: binds
Molecule: TLE1 (endogenous) (from UniProt Q04724 1-770)

binding [1]: binds
binding [2]: binds
Molecule: TROVE2 (endogenous) (from UniProt P10155 1-538)

binding [1]: binds
binding [2]: binds
Molecule: TRRAP (endogenous) (from UniProt Q9Y4A5 1-3859)

binding [1]: binds
binding [2]: binds
Molecule: USP11 (endogenous) (from UniProt P51784 1-963)

binding [3]: binds
binding [4]: binds
B1: CBLL1 (endogenous) (protein, UniProt Q75N03 1-491)
chain: MDHTDNELQGTNSSGSLGGLDVRRRIPIKLISKQANKAKPAPRTQRTINRMPAKAPPGDEEGFDYNEEERYDCKGGELFANQRRFPGHLFWDFQINILGEKDDTPVHFCDKCGLPIKIYGRMIPCKHVFCYDCAILHEKKGDKMCPGCSDPVQRIEQCTRGSLFMCSIVQGCKRTYLSQRDLQAHINHRHMRAGKPVTRASLENVHPPIAPPPTEIPERFIMPPDKHHMSHIPPKQHIMMPPPPLQHVPHEHYNQPHEDIRAPPAELSMAPPPPRSVSQETFRISTRKHSNLITVPIQDDSNSGAREPPPPAPAPAHHHPEYQGQPVVSHPHHIMPPQQHYAPPPPPPPPISHPMPHPPQAAGTPHLVYSQAPPPPMTSAPPPITPPPGHIIAQMPPYMNHPPPGPPPPQHGGPPVTAPPPHHYNPNSLPQFTEDQGTLSPPFTQPGGMSPGIWPAPRGPPPPPRLQGPPSQTPLPGPHHPDQTRYRPYYQ

From publication PMC8543820
